From patent publication US20220401589A1, “PRE-TARGETING IMAGING AGENTS” (Eli Lilly and Company, priority 2019, published 2022)
The source gives many values for each of these; only a part stands here.

Assay: Dynamic PET-CT imaging, tracer uptake in brain, muscle and bone
Type: in vivo, Male CD-1 mice
Details: 90-minute PET scan
Procedure: PET-CT imaging of [^18F]—N-(4-(1,2,4,5-tetrazin-3-yl)benzyl)-4-fluorobenzamide
A Siemens Inveon® Multimodality Scanner (Siemens, Germany) is used for micro PET/CT imaging. Male CD-1 (6-week-old, ˜30 g) mice are anesthetized with 3% isoflurane/97% oxygen and placed on the bed of the scanner. The mice are administered [^18F]—N-(4-(1,2,4,5-tetrazin-3-yl)benzyl)-4-fluorobenzamide via a bolus intravenous tail vein injection (˜[…] in a total volume of 200 μL saline). A total of six (four 60 min and two 90 min) dynamic PET scans are conducted, followed by a short high-resolution CT scan for anatomical registration. PET images are generated for each minute of the acquisition time. Uptake of the tracer in the brain, muscle, and bone are determined by visually drawing regions of interest (ROIs) based on the fused PET/CT images and the corresponding activity values are determined using the Inveon® Research Workplace software. All values are represented as % injected dose per gram (% ID/g).
Bone uptake throughout the scan period remained low, consistent with an absence of defluorination for this tracer. Results of the 90 min scans are similar to the 60 min scan results with peak brain uptake observed at 3.4% ID/g at 2.5 min post injection followed by an immediate wash out to 0.6% ID/g by 59.5 min. Residual uptake is also observed throughout the body of the mouse. Time activity curves are generated for [^18F]—N-(4-(1,2,4,5-tetrazin-3-yl)benzyl)-4-fluorobenzamide in CD-1 male mice (n=4). Data is shown in graphical format in FIGS. 1A and 1B and in tabular format below.

Bone Mean (time 0 min): 0 % ID/g | Brain Mean (time 0 min): 0 % ID/g | Muscle Mean (time 0 min): 0 % ID/g | Bone Mean (time 0.5 min): 0 % ID/g | Brain Mean (time 0.5 min): 0 % ID/g | Muscle Mean (time 0.5 min): 0 % ID/g | Bone Mean (time 1.5 min): 0.48 % ID/g | Brain Mean (time 1.5 min): 2.02 % ID/g | Muscle Mean (time 1.5 min): 0.29 % ID/g | Bone Mean (time 2.5 min): 0.90 % ID/g | Brain Mean (time 2.5 min): 3.41 % ID/g | Muscle Mean (time 2.5 min): 0.63 % ID/g | Bone Mean (time 3.5 min): 0.90 % ID/g | Brain Mean (time 3.5 min): 3.06 % ID/g | Muscle Mean (time 3.5 min): 0.66 % ID/g | Bone Mean (time 4.5 min): 0.90 % ID/g | Brain Mean (time 4.5 min): 2.76 % ID/g | Muscle Mean (time 4.5 min): 0.63 % ID/g | Bone Mean (time 5.5 min): 0.87 % ID/g | Brain Mean (time 5.5 min): 2.50 % ID/g | Muscle Mean (time 5.5 min): 0.60 % ID/g | Bone Mean (time 6.5 min): 0.97 % ID/g | Brain Mean (time 6.5 min): 2.38 % ID/g | Muscle Mean (time 6.5 min): 0.68 % ID/g | Bone Mean (time 7.5 min): 0.94 % ID/g | Brain Mean (time 7.5 min): 2.19 % ID/g | Muscle Mean (time 7.5 min): 0.62 % ID/g | Bone Mean (time 8.5 min): 0.93 % ID/g | Brain Mean (time 8.5 min): 2.02 % ID/g | Muscle Mean (time 8.5 min): 0.68 % ID/g | Bone Mean (time 9.5 min): 1.01 % ID/g | Brain Mean (time 9.5 min): 1.87 % ID/g | Muscle Mean (time 9.5 min): 0.71 % ID/g | Bone Mean (time 10.5 min): 0.70 % ID/g | Brain Mean (time 10.5 min): 1.74 % ID/g | Muscle Mean (time 10.5 min): 0.65 % ID/g | Bone Mean (time 11.5 min): 0.82 % ID/g | Brain Mean (time 11.5 min): 1.63 % ID/g | Muscle Mean (time 11.5 min): 0.66 % ID/g | Bone Mean (time 12.5 min): 0.84 % ID/g | Brain Mean (time 12.5 min): 1.55 % ID/g | Muscle Mean (time 12.5 min): 0.67 % ID/g | Bone Mean (time 13.5 min): 0.83 % ID/g | Brain Mean (time 13.5 min): 1.44 % ID/g | Muscle Mean (time 13.5 min): 0.65 % ID/g | Bone Mean (time 14.5 min): 0.63 % ID/g | Brain Mean (time 14.5 min): 1.36 % ID/g | Muscle Mean (time 14.5 min): 0.64 % ID/g | Bone Mean (time 15.5 min): 0.62 % ID/g | Brain Mean (time 15.5 min): 1.29 % ID/g | Muscle Mean (time 15.5 min): 0.64 % ID/g | Bone Mean (time 16.5 min): 0.71 % ID/g | Brain Mean (time 16.5 min): 1.23 % ID/g | Muscle Mean (time 16.5 min): 0.60 % ID/g | Bone Mean (time 17.5 min): 0.51 % ID/g | Brain Mean (time 17.5 min): 1.16 % ID/g | Muscle Mean (time 17.5 min): 0.62 % ID/g | Bone Mean (time 18.5 min): 0.71 % ID/g | Brain Mean (time 18.5 min): 1.11 % ID/g | Muscle Mean (time 18.5 min): 0.63 % ID/g | Bone Mean (time 19.5 min): 0.74 % ID/g | Brain Mean (time 19.5 min): 1.04 % ID/g | Muscle Mean (time 19.5 min): 0.63 % ID/g | Bone Mean (time 20.5 min): 0.63 % ID/g | Brain Mean (time 20.5 min): 1.02 % ID/g | Muscle Mean (time 20.5 min): 0.66 % ID/g | Bone Mean (time 21.5 min): 0.70 % ID/g | Brain Mean (time 21.5 min): 0.97 % ID/g | Muscle Mean (time 21.5 min): 0.61 % ID/g | Bone Mean (time 22.5 min): 0.69 % ID/g | Brain Mean (time 22.5 min): 0.95 % ID/g | Muscle Mean (time 22.5 min): 0.61 % ID/g | Bone Mean (time 23.5 min): 0.78 % ID/g | Brain Mean (time 23.5 min): 0.91 % ID/g | Muscle Mean (time 23.5 min): 0.65 % ID/g | Bone Mean (time 24.5 min): 0.73 % ID/g | Brain Mean (time 24.5 min): 0.88 % ID/g | Muscle Mean (time 24.5 min): 0.64 % ID/g | Bone Mean (time 25.5 min): 0.95 % ID/g | Brain Mean (time 25.5 min): 0.85 % ID/g | Muscle Mean (time 25.5 min): 0.62 % ID/g | Bone Mean (time 26.5 min): 0.64 % ID/g | Brain Mean (time 26.5 min): 0.83 % ID/g | Muscle Mean (time 26.5 min): 0.58 % ID/g | Bone Mean (time 27.5 min): 0.69 % ID/g | Brain Mean (time 27.5 min): 0.82 % ID/g | Muscle Mean (time 27.5 min): 0.60 % ID/g | Bone Mean (time 28.5 min): 0.60 % ID/g | Brain Mean (time 28.5 min): 0.81 % ID/g | Muscle Mean (time 28.5 min): 0.62 % ID/g | Bone Mean (time 29.5 min): 0.76 % ID/g | Brain Mean (time 29.5 min): 0.78 % ID/g | Muscle Mean (time 29.5 min): 0.63 % ID/g | Bone Mean (time 30.5 min): 0.76 % ID/g | Brain Mean (time 30.5 min): 0.76 % ID/g | Muscle Mean (time 30.5 min): 0.64 % ID/g | Bone Mean (time 31.5 min): 0.60 % ID/g | Brain Mean (time 31.5 min): 0.75 % ID/g | Muscle Mean (time 31.5 min): 0.66 % ID/g | Bone Mean (time 32.5 min): 0.70 % ID/g | Brain Mean (time 32.5 min): 0.74 % ID/g | Muscle Mean (time 32.5 min): 0.63 % ID/g | Bone Mean (time 33.5 min): 0.67 % ID/g | Brain Mean (time 33.5 min): 0.72 % ID/g | Muscle Mean (time 33.5 min): 0.62 % ID/g | Bone Mean (time 34.5 min): 0.74 % ID/g | Brain Mean (time 34.5 min): 0.70 % ID/g | Muscle Mean (time 34.5 min): 0.60 % ID/g | Bone Mean (time 35.5 min): 0.69 % ID/g | Brain Mean (time 35.5 min): 0.70 % ID/g | Muscle Mean (time 35.5 min): 0.65 % ID/g | Bone Mean (time 36.5 min): 0.79 % ID/g | Brain Mean (time 36.5 min): 0.70 % ID/g | Muscle Mean (time 36.5 min): 0.65 % ID/g | Bone Mean (time 37.5 min): 0.62 % ID/g | Brain Mean (time 37.5 min): 0.68 % ID/g | Muscle Mean (time 37.5 min): 0.59 % ID/g | Bone Mean (time 38.5 min): 0.87 % ID/g | Brain Mean (time 38.5 min): 0.68 % ID/g | Muscle Mean (time 38.5 min): 0.63 % ID/g | Bone Mean (time 39.5 min): 0.60 % ID/g | Brain Mean (time 39.5 min): 0.66 % ID/g | Muscle Mean (time 39.5 min): 0.61 % ID/g | Bone Mean (time 40.5 min): 0.82 % ID/g | Brain Mean (time 40.5 min): 0.66 % ID/g | Muscle Mean (time 40.5 min): 0.61 % ID/g | Bone Mean (time 41.5 min): 0.77 % ID/g | Brain Mean (time 41.5 min): 0.66 % ID/g | Muscle Mean (time 41.5 min): 0.59 % ID/g | Bone Mean (time 42.5 min): 0.61 % ID/g | Brain Mean (time 42.5 min): 0.65 % ID/g | Muscle Mean (time 42.5 min): 0.63 % ID/g | Bone Mean (time 43.5 min): 0.65 % ID/g | Brain Mean (time 43.5 min): 0.64 % ID/g | Muscle Mean (time 43.5 min): 0.64 % ID/g | Bone Mean (time 44.5 min): 0.61 % ID/g | Brain Mean (time 44.5 min): 0.64 % ID/g | Muscle Mean (time 44.5 min): 0.66 % ID/g | Bone Mean (time 45.5 min): 0.66 % ID/g | Brain Mean (time 45.5 min): 0.64 % ID/g | Muscle Mean (time 45.5 min): 0.63 % ID/g | Bone Mean (time 46.5 min): 0.67 % ID/g | Brain Mean (time 46.5 min): 0.64 % ID/g | Muscle Mean (time 46.5 min): 0.64 % ID/g | Bone Mean (time 47.5 min): 0.69 % ID/g | Brain Mean (time 47.5 min): 0.64 % ID/g | Muscle Mean (time 47.5 min): 0.65 % ID/g | Bone Mean (time 48.5 min): 0.76 % ID/g | Brain Mean (time 48.5 min): 0.62 % ID/g | Muscle Mean (time 48.5 min): 0.61 % ID/g | Bone Mean (time 49.5 min): 0.91 % ID/g | Brain Mean (time 49.5 min): 0.62 % ID/g | Muscle Mean (time 49.5 min): 0.62 % ID/g | Bone Mean (time 50.5 min): 0.58 % ID/g | Brain Mean (time 50.5 min): 0.61 % ID/g | Muscle Mean (time 50.5 min): 0.60 % ID/g | Bone Mean (time 51.5 min): 0.70 % ID/g | Brain Mean (time 51.5 min): 0.63 % ID/g | Muscle Mean (time 51.5 min): 0.59 % ID/g | Bone Mean (time 52.5 min): 0.51 % ID/g | Brain Mean (time 52.5 min): 0.63 % ID/g | Muscle Mean (time 52.5 min): 0.65 % ID/g | Bone Mean (time 53.5 min): 0.68 % ID/g | Brain Mean (time 53.5 min): 0.62 % ID/g | Muscle Mean (time 53.5 min): 0.64 % ID/g | Bone Mean (time 54.5 min): 0.55 % ID/g | Brain Mean (time 54.5 min): 0.63 % ID/g | Muscle Mean (time 54.5 min): 0.69 % ID/g | Bone Mean (time 55.5 min): 0.68 % ID/g | Brain Mean (time 55.5 min): 0.61 % ID/g | Muscle Mean (time 55.5 min): 0.63 % ID/g | Bone Mean (time 56.5 min): 0.65 % ID/g | Brain Mean (time 56.5 min): 0.62 % ID/g | Muscle Mean (time 56.5 min): 0.67 % ID/g | Bone Mean (time 57.5 min): 0.62 % ID/g | Brain Mean (time 57.5 min): 0.63 % ID/g | Muscle Mean (time 57.5 min): 0.63 % ID/g | Bone Mean (time 58.5 min): 0.67 % ID/g | Brain Mean (time 58.5 min): 0.63 % ID/g
Structure (SMILES): O=C(NCc1ccc(-c2nncnn2)cc1)c1ccc([18F])cc1 [[^18F]—N-(4-(1,2,4,5-tetrazin-3-yl)benzyl)-4-fluorobenzamide]
